What all share (assay): co-IP
Assay [1] has as its target MYC (endogenous, in EtOH-treated control U2OS^MYC-Tet-On cells) (human (endogenous in U2OS)) (UniProt P01106).
The target in assay [2] is HNRNPC (human (endogenous in U2OS)) (UniProt P07910).
The target in assay [3] is T1, ZCCHC8 (human (endogenous in U2OS)) (UniProt Q6NZY4).
T1 sequence: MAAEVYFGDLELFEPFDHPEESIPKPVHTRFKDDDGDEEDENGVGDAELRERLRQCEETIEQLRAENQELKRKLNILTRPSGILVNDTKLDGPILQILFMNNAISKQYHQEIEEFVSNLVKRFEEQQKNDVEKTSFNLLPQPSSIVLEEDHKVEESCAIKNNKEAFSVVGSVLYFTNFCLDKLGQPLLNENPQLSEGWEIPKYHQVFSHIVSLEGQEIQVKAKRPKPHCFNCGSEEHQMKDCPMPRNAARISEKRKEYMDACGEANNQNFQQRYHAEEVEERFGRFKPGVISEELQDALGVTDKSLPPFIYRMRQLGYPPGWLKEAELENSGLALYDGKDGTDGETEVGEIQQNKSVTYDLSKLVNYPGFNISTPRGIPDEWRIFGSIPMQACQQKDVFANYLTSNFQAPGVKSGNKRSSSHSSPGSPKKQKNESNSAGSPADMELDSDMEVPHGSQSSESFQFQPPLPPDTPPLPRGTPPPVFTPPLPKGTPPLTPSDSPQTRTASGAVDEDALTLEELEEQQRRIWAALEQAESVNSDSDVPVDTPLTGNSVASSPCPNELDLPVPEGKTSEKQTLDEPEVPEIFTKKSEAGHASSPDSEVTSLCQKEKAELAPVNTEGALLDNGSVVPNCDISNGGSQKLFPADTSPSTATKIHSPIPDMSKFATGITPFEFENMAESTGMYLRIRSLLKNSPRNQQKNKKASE

By UniProt entry, the sequences of proteins in these tests, tags left out.
UniProt P01106: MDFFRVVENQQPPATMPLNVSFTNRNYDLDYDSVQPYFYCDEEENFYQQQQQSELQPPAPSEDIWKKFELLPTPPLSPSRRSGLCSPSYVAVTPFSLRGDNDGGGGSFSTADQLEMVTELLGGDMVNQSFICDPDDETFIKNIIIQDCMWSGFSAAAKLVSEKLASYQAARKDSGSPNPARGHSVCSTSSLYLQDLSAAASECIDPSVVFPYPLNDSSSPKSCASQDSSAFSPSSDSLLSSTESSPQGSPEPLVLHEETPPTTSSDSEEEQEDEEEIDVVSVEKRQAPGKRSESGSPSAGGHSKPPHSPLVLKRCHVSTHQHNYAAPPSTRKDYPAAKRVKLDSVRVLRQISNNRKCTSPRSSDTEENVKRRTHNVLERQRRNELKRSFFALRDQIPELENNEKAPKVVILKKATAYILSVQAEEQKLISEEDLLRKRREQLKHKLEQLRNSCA
UniProt P07910: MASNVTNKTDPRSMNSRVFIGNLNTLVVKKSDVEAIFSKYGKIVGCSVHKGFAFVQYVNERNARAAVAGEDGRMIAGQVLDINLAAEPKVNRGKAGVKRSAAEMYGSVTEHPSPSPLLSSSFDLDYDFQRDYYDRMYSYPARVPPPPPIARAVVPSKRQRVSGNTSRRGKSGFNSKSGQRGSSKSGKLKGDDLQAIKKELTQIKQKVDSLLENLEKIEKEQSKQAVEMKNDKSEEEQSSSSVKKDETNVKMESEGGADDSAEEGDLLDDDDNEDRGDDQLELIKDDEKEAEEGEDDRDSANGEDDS
UniProt P35637: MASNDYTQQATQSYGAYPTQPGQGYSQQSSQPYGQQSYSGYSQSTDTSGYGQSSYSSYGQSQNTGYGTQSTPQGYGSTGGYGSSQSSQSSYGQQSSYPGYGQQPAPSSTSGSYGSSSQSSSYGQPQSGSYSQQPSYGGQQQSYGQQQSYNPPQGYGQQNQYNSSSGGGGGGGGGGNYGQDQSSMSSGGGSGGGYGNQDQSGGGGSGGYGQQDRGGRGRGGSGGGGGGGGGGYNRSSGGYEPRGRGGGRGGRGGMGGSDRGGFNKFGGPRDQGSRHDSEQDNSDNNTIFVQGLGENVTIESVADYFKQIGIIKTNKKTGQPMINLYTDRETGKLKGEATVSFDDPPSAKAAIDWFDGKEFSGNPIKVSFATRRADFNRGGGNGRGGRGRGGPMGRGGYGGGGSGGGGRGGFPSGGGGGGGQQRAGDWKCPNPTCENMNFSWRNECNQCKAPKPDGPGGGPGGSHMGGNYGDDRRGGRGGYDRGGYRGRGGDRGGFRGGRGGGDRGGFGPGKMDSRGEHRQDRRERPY
UniProt Q86U44: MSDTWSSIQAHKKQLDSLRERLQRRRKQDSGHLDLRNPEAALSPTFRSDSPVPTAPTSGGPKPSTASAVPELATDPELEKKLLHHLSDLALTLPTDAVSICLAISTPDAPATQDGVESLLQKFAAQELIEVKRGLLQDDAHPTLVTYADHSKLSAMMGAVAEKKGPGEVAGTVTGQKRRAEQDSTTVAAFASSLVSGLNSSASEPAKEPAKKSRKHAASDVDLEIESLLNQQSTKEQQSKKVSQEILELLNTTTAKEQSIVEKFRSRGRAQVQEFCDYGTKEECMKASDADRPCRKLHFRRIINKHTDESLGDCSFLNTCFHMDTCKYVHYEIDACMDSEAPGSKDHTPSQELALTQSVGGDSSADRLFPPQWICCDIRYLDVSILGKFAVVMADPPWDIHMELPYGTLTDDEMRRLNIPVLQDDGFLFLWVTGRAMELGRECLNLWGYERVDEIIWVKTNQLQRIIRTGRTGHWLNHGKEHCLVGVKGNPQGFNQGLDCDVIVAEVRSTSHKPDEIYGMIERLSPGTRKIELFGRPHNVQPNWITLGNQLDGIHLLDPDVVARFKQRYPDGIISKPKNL

The target in assay [4] is T2, RBM15 (human (endogenous in U2OS)) (UniProt Q96T37).
T2 sequence: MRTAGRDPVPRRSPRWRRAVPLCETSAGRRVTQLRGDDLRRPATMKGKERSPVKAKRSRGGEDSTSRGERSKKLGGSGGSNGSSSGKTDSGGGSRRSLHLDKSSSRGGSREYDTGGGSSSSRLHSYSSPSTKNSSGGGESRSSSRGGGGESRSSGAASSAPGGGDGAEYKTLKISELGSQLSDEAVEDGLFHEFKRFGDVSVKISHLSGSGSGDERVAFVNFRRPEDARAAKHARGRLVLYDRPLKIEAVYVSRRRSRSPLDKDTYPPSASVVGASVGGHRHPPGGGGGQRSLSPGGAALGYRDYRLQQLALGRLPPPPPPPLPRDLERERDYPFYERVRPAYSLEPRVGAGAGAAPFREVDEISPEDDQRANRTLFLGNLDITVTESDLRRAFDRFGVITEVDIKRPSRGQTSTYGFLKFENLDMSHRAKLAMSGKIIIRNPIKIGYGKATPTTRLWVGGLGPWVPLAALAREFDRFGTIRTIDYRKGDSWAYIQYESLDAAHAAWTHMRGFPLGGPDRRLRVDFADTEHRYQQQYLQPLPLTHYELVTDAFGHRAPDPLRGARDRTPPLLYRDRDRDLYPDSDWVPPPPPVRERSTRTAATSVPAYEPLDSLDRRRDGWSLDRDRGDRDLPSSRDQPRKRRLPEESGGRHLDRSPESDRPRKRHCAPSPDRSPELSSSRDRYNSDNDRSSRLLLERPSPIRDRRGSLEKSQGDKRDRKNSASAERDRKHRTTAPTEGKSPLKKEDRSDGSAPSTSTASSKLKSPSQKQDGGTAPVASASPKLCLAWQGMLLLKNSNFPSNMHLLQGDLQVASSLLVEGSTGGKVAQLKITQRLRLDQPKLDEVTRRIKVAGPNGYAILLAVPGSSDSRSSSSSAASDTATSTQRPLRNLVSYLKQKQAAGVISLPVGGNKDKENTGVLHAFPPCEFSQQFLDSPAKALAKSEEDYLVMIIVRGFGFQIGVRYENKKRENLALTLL

Assay [5] has as its target FUS (human (endogenous in U2OS)) (UniProt P35637).

These are yes or no findings as the source states them, for the method shown. In cells and extracts the contact can be indirect. Some entries that bind do so weakly or less than the wild type.

As for FUS (from UniProt P35637 1-526), in assay [1], the binding result is “binds”.
On the same count and under the same terms, the value for METTL3 (from UniProt Q86U44 1-580) was “binds”.
“MYC (in doxycycline-treated U2OS^MYC-Tet-On cells) (from UniProt P01106 1-454)”: the binding result in assay [2], in assay [3], in assay [4] and in assay [5] was “binds” each time.

(Values after doi:10.1101/2024.12.06.627168.)
